According to publication PMC10350923, “In Vitro and In Vivo Biological Activities of Dipicolinate Oxovanadium(IV) Complexes” (Journal of Medicinal Chemistry, 2023):

Experiments:
[1] = test system: HCT116-DoxR (doxorubicin-resistant colorectal carcinoma cell line); experiment: MTS cell viability assay, HCT116-DoxR; details: for SI (ligands): IC50 fibroblasts / IC50 HCT116-DoxR, free ligands; for SI HCT116-DoxR: IC50 in fibroblasts / IC50 in HCT116-DoxR; for more selective for HCT116-DoxR cells than for nontumor cells: vs normal primary fibroblasts;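 as to all read-outs here: MTS colorimetric quantification of viable cells, with loss of viability tracked as complex concentration rises, in DMEM-grown HCT116-DoxR, a line whose resistance involves P-glycoprotein efflux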
[2] = test system: A2780 (ovarian carcinoma cell line); experiment: MTS cell viability assay, A2780; type: cell-based, human; details: IC50 in fibroblasts / IC50 in A2780
[3] = test system: HCT116 (colorectal carcinoma cell line); experiment: MTS cell viability assay, HCT116; type: cell-based, human; details: IC50 in fibroblasts / IC50 in HCT116

`COc1ccnc2c1ccc1c(OC)ccnc12` [4,7-(CH3O)2-phen, 4,7-dimethoxy-1,10-phenanthroline] was tested, and the “SI (ligands)” value [1] was 33.3.
With `Clc1ccnc2c1ccc1c(Cl)ccnc12` [4,7-Cl2-phen, 4,7-dichloro-1,10-phenanthroline] the “SI (ligands)” value [1] was 1.1.
For `c1ccc(-c2ccnc3c2ccc2c(-c4ccccc4)ccnc23)cc1` [4,7-Ph2-phen, 4,7-diphenyl-1,10-phenanthroline], the “SI (ligands)” value [1] was 14.7.
For `c1cnc2c(c1)ccc1cccnc12` [Phen, 1,10-phenanthroline], the “SI (ligands)” value [1] was >31.3.
For `c1ccc(-c2nc3ccccc3[nH]2)nc1` [Pybim, 2-(2-pyridyl)benzimidazole], the “SI (ligands)” value [1] was 1.8.
In the case of `O=C1[O][V](=[O])[O]C(=O)c2cccc1n2.c1ccc(-c2ncc[nH]2)nc1` [complex 1, [VO(dipic)(pyim)]], the “SI A2780” value [2] is reported as 1.3 and the “SI HCT116” value [3] is reported as >0.4.
`O=C1[O][V](=[O])[O]C(=O)c2cccc1n2.c1ccc(-c2nc3ccccc3[nH]2)nc1` [complex 2, [VO(dipic)(pybim)]] was tested, and the “SI A2780” value [2] was 2.3, the “SI HCT116” value [3] was >0.3 and the “SI HCT116-DoxR” value [1] was 0.5.
With `O=C1C(=O)c2cccnc2-c2ncccc21.O=C1[O][V](=[O])[O]C(=O)c2cccc1n2` [complex 3, [VO(dipic)(phendione)]] the “SI A2780” value [2] was 3.5 and the “SI HCT116-DoxR” value [1] was 0.6 and 0.5.
`Clc1ccnc2c1ccc1c(Cl)ccnc12.O=C1[O][V](=[O])[O]C(=O)c2cccc1n2` [complex 4, [VO(dipic)(4,7-Cl2-phen)]] was tested, and the “SI HCT116” value [3] was 1.0 and the “SI HCT116-DoxR” value [1] was 1.0.
In the case of `COc1ccnc2c1ccc1c(OC)ccnc12.O=C1[O][V](=[O])[O]C(=O)c2cccc1n2` [complex 5, [VO(dipic)(4,7-(CH3O)2-phen)]], the “SI A2780” value [2] is reported as 2.4, the “SI HCT116” value [3] is reported as 1.7 and the “SI HCT116-DoxR” value [1] is reported as 15.5.
With `O=C1[O][V](=[O])[O]C(=O)c2cccc1n2.c1ccc(-c2ccnc3c2ccc2c(-c4ccccc4)ccnc23)cc1` [complex 6, [VO(dipic)(4,7-Ph2-phen)]] the “SI HCT116” value [3] was 4.4, the “SI HCT116-DoxR” value [1] was 20 and the “more selective for HCT116-DoxR cells than for nontumor cells” value [1] was ~24 ×.
For `O=C1[O][V](=[O])[O]C(=O)c2cccc1n2.c1ccc2c(c1)Sc1ccccc1N2c1ccnc2c1ccc1c(N3c4ccccc4Sc4ccccc43)ccnc12` [complex 7, [VO(dipic)(4,7-(phtiaz)2-phen)]], the “SI HCT116” value [3] was >0.4.
With `O=C1[O][V](=[O])[O]C(=O)c2cccc1n2.c1cnc2c(c1)ccc1cccnc12` [complex 8, [VO(dipic)(phen)]] the “SI HCT116” value [3] was 2.3, the “SI HCT116-DoxR” value [1] was 6.6 and the “more selective for HCT116-DoxR cells than for nontumor cells” value [1] was ~7 ×.
With `O=C1[O][V](=[O])[O]C(=O)c2cccc1n2.c1ccc(-c2ccccn2)nc1` [complex 9, [VO(dipic)(bipy)]] the “SI A2780” value [2] was 3.4, the “SI HCT116” value [3] was 0.4 and the “SI HCT116-DoxR” value [1] was 0.4.
With `O=C1[O][V](=[O])[O]C(=O)c2cccc1n2.c1c[nH]cn1.c1c[nH]cn1` [complex 10, [VO(dipic)(im)2]] the “SI A2780” value [2] was 1.4 and the “SI HCT116” value [3] was >0.4.
For `O=C1C(=O)c2cccnc2-c2ncccc21` [phendione], the “SI (ligands)” value [1] was 2.6.

Where “and” joins values, the source holds several entries; their conditions need not be identical. Equal entries are not always repeated.
